Results are given in words; binding and its absence hold for the method and conditions named. Binding seen in cells or lysates may run through a third protein. Here binding means that the protein was enriched with, or labelled near, the bait; the list need not be complete. Tags and fused reporters may be left off the sequences shown.
T1: GFP-AGO1 (ARGONAUTE1 fused to GFP, line pAGO1:GFP-AGO1 ago1-27) (Arabidopsis thaliana) (UniProt O04379)
T1 sequence: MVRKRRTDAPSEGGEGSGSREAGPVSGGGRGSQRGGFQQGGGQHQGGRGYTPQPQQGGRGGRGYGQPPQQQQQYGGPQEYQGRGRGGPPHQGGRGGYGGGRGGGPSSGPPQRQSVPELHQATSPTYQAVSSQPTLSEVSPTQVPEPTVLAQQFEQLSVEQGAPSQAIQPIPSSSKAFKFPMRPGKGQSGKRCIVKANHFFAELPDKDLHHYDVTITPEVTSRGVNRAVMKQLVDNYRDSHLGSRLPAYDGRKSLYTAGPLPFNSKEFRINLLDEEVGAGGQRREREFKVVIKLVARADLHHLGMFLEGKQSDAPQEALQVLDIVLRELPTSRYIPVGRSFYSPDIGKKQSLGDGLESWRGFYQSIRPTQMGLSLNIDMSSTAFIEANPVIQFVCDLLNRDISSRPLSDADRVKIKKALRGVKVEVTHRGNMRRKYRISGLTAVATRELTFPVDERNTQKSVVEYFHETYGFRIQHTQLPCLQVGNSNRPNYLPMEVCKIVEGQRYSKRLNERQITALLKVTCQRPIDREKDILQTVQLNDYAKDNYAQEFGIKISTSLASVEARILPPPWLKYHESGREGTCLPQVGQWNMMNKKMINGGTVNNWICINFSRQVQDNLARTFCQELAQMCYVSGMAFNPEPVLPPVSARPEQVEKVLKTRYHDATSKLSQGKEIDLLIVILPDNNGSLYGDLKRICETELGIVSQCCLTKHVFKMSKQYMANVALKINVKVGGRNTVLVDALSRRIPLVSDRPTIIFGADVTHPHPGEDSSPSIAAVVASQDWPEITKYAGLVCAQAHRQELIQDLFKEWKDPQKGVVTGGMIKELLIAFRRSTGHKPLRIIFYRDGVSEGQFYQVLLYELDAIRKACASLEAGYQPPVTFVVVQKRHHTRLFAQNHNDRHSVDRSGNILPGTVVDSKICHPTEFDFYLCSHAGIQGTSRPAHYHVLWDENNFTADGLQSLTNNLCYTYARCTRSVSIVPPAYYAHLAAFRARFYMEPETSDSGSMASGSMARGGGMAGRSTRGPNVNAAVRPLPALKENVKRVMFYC

Amino acid sequences for entries named in this document (tags omitted).
UniProt Q9M2F9: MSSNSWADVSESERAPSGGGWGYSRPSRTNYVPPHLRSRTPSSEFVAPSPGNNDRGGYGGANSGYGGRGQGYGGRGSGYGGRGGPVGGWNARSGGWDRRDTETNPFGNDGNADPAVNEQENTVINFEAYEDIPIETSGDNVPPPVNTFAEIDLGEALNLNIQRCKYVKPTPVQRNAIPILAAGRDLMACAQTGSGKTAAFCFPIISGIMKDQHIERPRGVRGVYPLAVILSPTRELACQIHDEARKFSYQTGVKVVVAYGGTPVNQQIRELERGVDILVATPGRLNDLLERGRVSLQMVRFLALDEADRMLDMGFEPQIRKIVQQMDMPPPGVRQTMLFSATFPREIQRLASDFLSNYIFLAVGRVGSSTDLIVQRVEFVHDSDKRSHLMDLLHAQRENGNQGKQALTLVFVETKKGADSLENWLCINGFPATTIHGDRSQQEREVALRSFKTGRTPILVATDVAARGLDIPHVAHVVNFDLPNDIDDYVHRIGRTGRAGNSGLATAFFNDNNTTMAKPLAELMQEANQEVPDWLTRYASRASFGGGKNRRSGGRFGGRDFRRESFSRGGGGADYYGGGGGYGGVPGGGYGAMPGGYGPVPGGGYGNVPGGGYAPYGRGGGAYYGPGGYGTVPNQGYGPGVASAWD
UniProt Q8LA13: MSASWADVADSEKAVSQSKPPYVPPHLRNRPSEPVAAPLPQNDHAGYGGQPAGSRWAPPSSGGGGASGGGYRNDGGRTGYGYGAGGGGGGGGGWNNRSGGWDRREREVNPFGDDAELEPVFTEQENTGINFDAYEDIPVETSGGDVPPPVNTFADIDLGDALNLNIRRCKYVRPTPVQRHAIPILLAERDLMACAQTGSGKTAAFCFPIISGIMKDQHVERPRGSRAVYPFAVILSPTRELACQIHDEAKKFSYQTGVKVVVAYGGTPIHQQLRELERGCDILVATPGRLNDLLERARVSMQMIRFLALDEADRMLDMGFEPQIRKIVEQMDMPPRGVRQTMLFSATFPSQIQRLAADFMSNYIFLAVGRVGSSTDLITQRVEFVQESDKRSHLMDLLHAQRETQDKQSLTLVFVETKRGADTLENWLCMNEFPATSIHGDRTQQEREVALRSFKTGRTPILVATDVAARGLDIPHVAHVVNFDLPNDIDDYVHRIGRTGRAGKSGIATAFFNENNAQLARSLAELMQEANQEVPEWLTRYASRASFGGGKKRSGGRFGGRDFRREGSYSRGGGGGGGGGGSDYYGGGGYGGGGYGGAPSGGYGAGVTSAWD

B1: PAB2 (protein, UniProt P42731 1-629)
chain: MAQVQLQGQTPNGSTAAVTSAPATSGGATATQFGNTSLYVGDLDFNVTDSQLFDAFGQMGTVVTVRVCRDLVTRRSLGYGYVNFTNPQDAARAIQELNYIPLYGKPIRVMYSHRDPSVRRSGAGNIFIKNLDESIDHKALHDTFSSFGNIVSCKVAVDSSGQSKGYGFVQYANEESAQKAIEKLNGMLLNDKQVYVGPFLRRQERDSTANKTKFTNVYVKNLAESTTDDDLKNAFGEYGKITSAVVMKDGEGKSKGFGFVNFENADDAARAVESLNGHKFDDKEWYVGRAQKKSERETELRVRYEQNLKEAADKFQSSNLYVKNLDPSISDEKLKEIFSPFGTVTSSKVMRDPNGTSKGSGFVAFATPEEATEAMSQLSGKMIESKPLYVAIAQRKEDRRVRLQAQFSQVRPVAMQPSVGPRMPVYPPGGPGIGQQMFYGQAPPAMIPPQPGYGYQQQLVPGMRPGGGPVPSFFMPMVQPQQQRPGGGRRPGGIQHSQQQNPMMQQQMHPRGRMFRYPQGRGGSGDVPPYDMGNNMPLTIGALASNLSNATPEQQRTMLGEVLYPLVEQVEAESAAKVTGMLLEMDQTEVLHLLESPEALKAKVAEAMDVLRSVAAGGATEQLASLNLS
B2: Tudor Staphylococcal Nuclease TSN1 (protein, UniProt Q8VZG7 1-991)
chain: MATGAENQWLKGRVKAVTSGDCLVITALSHNRAGPPPEKTITFSSLMAPKMARRGGIDEPFAWESKEFLRKLCIGKEVAFKVDYKVEAIAGREFGSVFLGNENLAKLVVKTGWAKVREPGQQNQDKVSPYIKELLQLEELAKQEGYGRWSKVPGAAEASIRNLPPSAIGDSAGFDAMGLLAANKGKPMEGIVEQVRDGSTIRVYLLPEFQFVQVFVAGVQAPSMGRRTTNGSVVETVPDEPNGDVSAESRGPLTTAQRLAASAASSVEVSSDPFATEAKYFTEHRVLSRDVRIVLEGVDKFNNLIGSVHYSDGETVKDLGLELVENGLAKFVEWSANMMEEEAKKKLKAAELQCKKDKVKMWANYVPPATNSKAIHDQNFTGKVVEVVSGDCLIVADDAVPFGSPAAERRVCLSSIRSPKMGNPRREEKPAPYAREAREFLRQRLIGKQVIVQMEYSRKVTQGDGPTTSGAADRFMDFGSVFLPSAAKADSDEVTAPPAAAIAGSQPVGVNIAELVLVRGFGNVVRHRDFEERSNHYDALLAAEARALAGKKGIHSAKESPAMHITDLTVSAAKKAKDFLPSLQRIRRIPAVVEYVLSGHRFKLYIPKITCSIAFSFSGVRCPGRGEPYSEEAISVMRRRIMQRDVEIEVETVDRTGTFLGSMWESRTNVATVLLEAGLAKMQTSFGADRIAEAHLLEQAERSAKNQKLKIWENYVEGEEVSNGNTNTVETRQKETLKVVVTEVLGGGRFYVQSAGDQKIASIQNQLASLSIKDAPIIGSFNPKRGDIVLAQFSLDNSWNRAMIVTAPRAAVQSPDEKFEVFYIDYGNQETVPYSAIRPIDPSVSAAPGLAQLCRLAYIKVPSLEDDFGPEAGEYLHTVTLGSGKEFKAVIEERDTSGGKVKGQGTGTEFVVTLIAVDDEISVNAAMLQEGIARMEKRQKWGHKGKQAALDALEKFQEEARKSRIGIWQYGDIESDDEDTGPARKPAGGRR
B3: Tudor Staphylococcal Nuclease TSN2 (protein, UniProt Q9FLT0 1-985)
chain: MATGAATENQWLKGRVKAVTSGDCLVITALTHNRAGPPPEKTITLSSLMAPKMARRGGIDEPFAWESREFLRKLCIGKEVAFKVDYKVEAIAGREFGSVYLGNENLAKLVVQNGWAKVRRPGQQNQDKVSPYIAELEQLEEQAQQEGFGRWSKVPGAAEASIRNLPPSAVGDSGNFDAMGLLAASKGKPMEGIVEQVRDGSTIRVYLLPEFQFVQVFVAGLQAPSMGRRQSTQEAVVDPDVTATSNGDASAETRGPLTTAQRLAASAASSVEVSSDPFAMEAKYFTELRVLNRDVRIVLEGVDKFNNLIGSVYYSDGDTVKDLGLELVENGLAKYVEWSANMLDEEAKKKLKATELQCKKNRVKMWANYVPPASNSKAIHDQNFTGKVVEVVSGDCLVVADDSIPFGSPMAERRVCLSSIRSPKMGNPRREEKPAPYAREAKEFLRQKLIGMEVIVQMEYSRKISPGDGVTTSGAGDRVMDFGSVFLPSPTKGDTAVAAAATPGANIAELIISRGLGTVVRHRDFEERSNHYDALLAAEARAIAGKKNIHSAKDSPALHIADLTVASAKKAKDFLPSLQRINQISAVVEYVLSGHRFKLYIPKESCSIAFAFSGVRCPGRGEPYSEEAIALMRRKIMQRDVEIVVENVDRTGTFLGSMWEKNSKTNAGTYLLEAGLAKMQTGFGADRIPEAHILEMAERSAKNQKLKIWENYVEGEEVVNGSSKVETRQKETLKVVVTEVLGGGRFYVQTVGDQKVASIQNQLAALSLKDAPIIGSFNPKKGDIVLAQFSLDNSWNRAMIVNGPRGAVQSPEEEFEVFYIDYGNQEIVPYSAIRPVDPSVSSAPGLAQLCRLAYIKVPGKEEDFGRDAGEYLHTVTLESGKEFRAVVEERDTSGGKVKGQGTGTELVVTLIAVDDEISVNAAMLQEGIARMEKRRRWEPKDKQAALDALEKFQDEARKSRTGIWEYGDIQSDDEDNVPVRKPGRG
B4: DCP5 (protein, UniProt Q9C658 1-611)
chain: MAADNTGSKSSSAADSYVGSLISLTSKSEIRYEGILYNINTDESSIGLQNVRSFGTEGRKKDGPQVPPSDKVYEYILFRGTDIKDLQVKASPPVQPPASTINNDPAIIQSHYPSPMPTSGSLPSTASGSLPDISSHNGQPGQHGMGFQNAMPLYQPGGNLGSWGASPQPPMYWQGFYTPPPNGLPQLHQQSLIRPPHGLPMPNSLQQPLQYPNFNTPPPPTGSSSLQGSSLPEAPSSLFPFSTSSQMLAPSSLPFPGLPPVTLSSSLQSTLQSAPSPSLASEMAPPLLSNKAPITAPPTLPQDTNLLSFSLSTTRATEASTGLPLSNKPSVVTGPISPPQTTPLTSAPVAGVSSSISQDKPKPLLVTPGQLLQSGSSAVSLSPPSTNADKDVEVVQVSSSAGLEQSVPVTSEAQPPILPLPSSARPTQKPNGHSFPNHNGYRGRGRGRGRGAGRSHQVMKFTEDFDFTAMNEKFNKDEVWGHLGKSTTLDGDEDDDSPTVDEAELPKIEAKPVYNKDDFFDSLSSNTIDRESQNSRPRFSEQRKLDTETFGEFSRFRGGRGGRGGYGRNNGYSRGGYGGRGYGGYGGRGGGGGGYGYGGRGQGRGVSNRTT
B5: VARICOSE (protein, UniProt Q9LTT8 1-1344)
chain: MASSPGNTNPHNTPPFDLGILFKPSSNPYPPPAASYPPPTGPFLHNQYDQQHYAPPGISAQPSPVTQQQQDVSSSSAATNLHPQRTLSYPTPPLNLQSPRSNHNPGTHILALLNNTNNGAPVANQEPSHQLPVVNHNEIARSFPGGSGPIRVPSCKLPKGRRLIGEHAVYDVDVRLQGEIQPQLEVTPITKYGSDPQLVVGRQIAVNKVYICYGLKGGNIRVLNINTALRSLFRGHSQRVTDMAFFAEDVDMLASVSLDGKVFVWKISEGSEGEDQPQITGKIVLALQILGEEDTKHPRVCWHCHKQEILVVSIGKHVLRIDTTKVGRGEVFSAEAPLQCPLDKLIDGVQIVGKHDGEVTDLSMCQWMTTRLVSSSVDGTIKIWQDRKAQPLVVLRPHDGHPVSSATFVTSPERPDHIILITGGPLNREMKIWVSAGEEGWLLPADAESWRCTQTLDLKSSTEPRAEEAFFNQVIALSEAGLLLLANAKRNALYAVHLDYGSSPVGTRMDYLSEFTVTMPILSFIGTNDPPEEPIVKVYCVQTLAIQQYTLDLCLCLPPPIENMGLEKSDSSVSREANLVEGMSEPSGLKPTDLPSVDSVPKPSIIVNRSESANKLSFPSAEATSQAIVPPNGEPKTSGLPSQTSGAGSAYATLPQLPLSPRLSSKLSGYHTPVEAIEPVIPHHELGGKTPSADYSVDRQMDAVGERNLDVSSVEEISRSKDSNVTPDDDVSGMRSPSAFFKHPTHLVTPSEILMGVSSAEASITTEDRRDRDANIQDVNNDPRDTEVEVKEISEARSTQNGEINDHDETENCTSENREKVFCSQVSNLSTEMARDCYPSTEGTFIPGESKAYGQPIKAGDESGVDSRGGPAKLLKGKKQKAKNSQGPGLSSTSSNVANLADSFNEQSQSLSHPMTDLLPQLLAMQETMNQVMASQKEMQRQLSNAATGPIGKESKRLEVALGRMIEKSSKSNADALWARIQEETVKNEKALRDHAQQIVNATTNFMSKELNAMFEKTIKKELAAIGPALARSVVPVIEKTVSSAITESFQRGIGDKAVNQLDKSVNIKLEATVARQIQAQFQTSGKQALQEGLRSSVESSVIPSFEKACKAMFDQIDSAFQKGIAEHTNAAQQRFDSGHSQLAHTLKESITSASSVAQALSRELAETQRNLLALAAAGANSGGSNSLVTQLSGGPLGALLEKVEAPMDPTTELSRLISERKYEESFTSALQRSDVSIVSWLCSQVDLRGLLAMNPLPLSQGVLLSLLQQLACDISKDTSRKLAWMTDVVAAINPSDQMIAVHARPIFEQVYQILHHHRNAPGSDVSAIRLIMHVINSMLMGCK

The molecules below were run against T1, GFP-AGO1 (ARGONAUTE1 fused to GFP, line pAGO1:GFP-AGO1 ago1-27) (Arabidopsis thaliana) (assay: affinity purification with mass spectrometry).
For G3BP1, the binding was “binds”. “RNA helicase RH52 (from UniProt Q9M2F9 1-646)” was tested, and the binding was “binds”. “RNA helicase RH11 (from UniProt Q8LA13 1-612)” was tested, and the binding was “binds”. In the case of B1, the binding is reported as “binds”. B2 was tested, and the binding was “binds”. In the case of B3, the binding is reported as “binds”. In the case of B4, the binding is reported as “binds”. For B5, the binding was “binds”.
